From article doi:10.1101/2025.08.22.671721
Results are given in words; binding and its absence hold for the method and conditions named. Binding seen in cells or lysates may run through a third protein. These calls come from enrichment with a bait or labelling near it, and not all partners need be listed. A no says only that the protein was not detected with the bait.

B1: ycf3/pafI (protein, UniProt O20031 1-172)
chain: MPRTQRNDNFIDKTFTVVADILLKVLPTSQREKQAFSYYRNGMSAQAEGEYAEALQNYYEAMRLEVDAYDRSYILYNIGLIHTSNGEHGRALEYYYQALERNPSLSSALNNIAVIYHYRGEQAIENGQSEISQILFEKAADYWKEAIRLAPTNYIEALNWLKMTGRLTGLAT
B2: PSAH1 (protein, UniProt P13352 31-130)
chain: KYGENSRYFDLQDMENTTGSWDMYGVDEKKRYPDNQAKFFTQATDIISRRESLRALVALSGIAAIVTYGLKGAKDADLPITKGPQTTGENGKGGSVRSRL

Key:
[1] = molecular target: CDJ5-WTTID (Chlamydomonas reinhardtii); test: proximity labelling
[2] = molecular target: LCP1TID (Chlamydomonas reinhardtii); test: proximity labelling

Row | Binder | binding [1] | binding [2]
1 | B1 | no binding | 
2 | B2 |  | no binding
